Data: PubChem BioAssay AID270 (DTP/NCI, 2004)
The list is a part of this screen's results and no random one: it covers a few groups of compounds. Other doses and runs of a compound may be missing. T/C is the treated group as % of the vehicle group. Schedules are NCI's codes, read here as Q, the interval in days (D) or hours (H), X, the number of doses. Some T/C values are followed by the survivors on the day toxicity was checked; where neither a count nor a note follows, no animal had died by that day. Some doses have a count of surviving animals in place of a T/C: the source files T/C as zero there, which appears to mark a toxic dose or a test without result, not a measured value. Some doses without a T/C left all or most animals alive at the check, yet need not have been tolerated: the source hardly ever lists a survival T/C far under the control, and the zero likely stands for such cases as well. Counts of survivors are from the toxicity check (mostly the fifth day) where no day follows; animals may have died later. Counts of survivors are from the toxicity check, whose day is not always given; animals may have died later. For survival time, this PubChem deposit counts one and a half times the control or more as active, and values a quarter to a half above the control carry no call in these data; other NCI protocols may use other cut-offs. Some T/C values carry the count of animals alive at the toxicity check (mostly the fifth day); without a count or a note in brackets, all were alive then.

Test system: BDF1 mice, s.c. Lewis lung carcinoma, T/C %
Assay: NCI In Vivo Anticancer Drug Screen. Data for tumor model Lewis Lung Carcinoma (subcutaneous) in B6D2F1 (BDF1) mice
Protocol: The antitumor activity of compounds was measured in mice bearing transplantable tumors. Survival or tumor size were measured and the results are expressed as the measurement made in the treated group (T) divided by the measurement made in the vehicle treated control group (C). The tumor model used in this assay is Lewis Lung Carcinoma (subcutaneous) in B6D2F1 (BDF1) mice

**Q.** For `BrCc1cccc(CBr)c1`, which T/C (T/C endpoint: mean tumor weight, dose: 2.3 mg/kg/injection, schedule: Q01DX011 (ip), vehicle: acid diluted with saline, evaluated on day 12, higher T/C = larger tumour) is on record?
**A.** 58 % of control [5 of 6 alive]

**Q.** And the T/C (T/C endpoint: mean tumor weight, dose: 4.5 mg/kg/injection, schedule: Q01DX011 (ip), vehicle: acid diluted with saline, evaluated on day 12, higher T/C = larger tumour)?
**A.** 105 % of control

**Q.** What about the T/C (T/C endpoint: mean tumor weight, dose: 9.0 mg/kg/injection, schedule: Q01DX011 (ip), vehicle: acid diluted with saline, evaluated on day 12, higher T/C = larger tumour) of the same compound?
**A.** 58 % of control

**Q.** And the T/C (T/C endpoint: mean tumor weight, dose: 9.0 mg/kg/injection, schedule: Q01DX011 (ip), vehicle: other, evaluated on day 12, higher T/C = larger tumour)?
**A.** 153 % of control

**Q.** What about the T/C (T/C endpoint: mean tumor weight, dose: 18.0 mg/kg/injection, schedule: Q01DX011 (ip), vehicle: acid diluted with saline, evaluated on day 12, higher T/C = larger tumour) of the same compound?
**A.** 62 % of control

**Q.** What about the T/C (T/C endpoint: mean tumor weight, dose: 18.0 mg/kg/injection, schedule: Q01DX011 (ip), vehicle: other, evaluated on day 12, higher T/C = larger tumour) of the same compound?
**A.** 108 % of control

**Q.** And the T/C (T/C endpoint: mean tumor weight, dose: 36.0 mg/kg/injection, schedule: Q01DX011 (ip), vehicle: other, evaluated on day 12, higher T/C = larger tumour)?
**A.** 126 % of control

**Q.** And the T/C (T/C endpoint: mean tumor weight, dose: 54.0 mg/kg/injection, schedule: Q01DX011 (ip), vehicle: other, evaluated on day 12, higher T/C = larger tumour)?
**A.** 93 % of control

**Q.** What about the survivor count (T/C endpoint: mean tumor weight, dose: 54.0 mg/kg/injection, schedule: Q01DX011 (ip), vehicle: other, higher T/C = larger tumour) of the same compound?
**A.** 1 of 6

**Q.** And the survivor count (T/C endpoint: mean tumor weight, dose: 108.0 mg/kg/injection, schedule: Q01DX011 (ip), vehicle: other, higher T/C = larger tumour)?
**A.** 0 of 6

**Q.** What about the survivor count (T/C endpoint: mean tumor weight, dose: 162.0 mg/kg/injection, schedule: Q01DX011 (ip), vehicle: other, higher T/C = larger tumour) of the same compound?
**A.** 0 of 6

**Q.** What does the source list for `O=C(NN(CCCl)CCCl)c1ccccc1`?
**A.** T/C (T/C endpoint: mean tumor weight, dose: 12.5 mg/kg/injection, schedule: Q01DX011 (ip), vehicle: saline, evaluated on day 12, higher T/C = larger tumour): 69 % of control; T/C (T/C endpoint: mean tumor weight, dose: 25.0 mg/kg/injection, schedule: Q01DX011 (ip), vehicle: saline, evaluated on day 12, higher T/C = larger tumour): 64 % of control; survivor count (T/C endpoint: mean tumor weight, dose: 50.0 mg/kg/injection, schedule: Q01DX011 (ip), vehicle: saline, higher T/C = larger tumour): 3 of 7; survivor count (T/C endpoint: mean tumor weight, dose: 100.0 mg/kg/injection, schedule: Q01DX011 (ip), vehicle: saline, higher T/C = larger tumour): 0 of 7

**Q.** What does the source list for `COc1cc2c(c3oc4cccc(O)c4c(=O)c13)[C@@H]1C=CO[C@@H]1O2`?
**A.** T/C (T/C endpoint: median survival time, dose: 3.75 mg/kg/injection, schedule: Q01DX009 (ip), vehicle: Klucel (hydroxypropylcellulose) (HPC), higher T/C = longer survival): 87 % of control; T/C (T/C endpoint: median survival time, dose: 4.0 mg/kg/injection, schedule: Q01DX009 (ip), vehicle: saline with Tween-80, higher T/C = longer survival): 94 % of control; T/C (T/C endpoint: median survival time, dose: 7.5 mg/kg/injection, schedule: Q01DX009 (ip), vehicle: Klucel (hydroxypropylcellulose) (HPC), higher T/C = longer survival): 108 % of control; T/C (T/C endpoint: median survival time, dose: 8.0 mg/kg/injection, schedule: Q01DX009 (ip), vehicle: saline with Tween-80, higher T/C = longer survival): 104 % of control; T/C (T/C endpoint: median survival time, dose: 15.0 mg/kg/injection, schedule: Q01DX009 (ip), vehicle: Klucel (hydroxypropylcellulose) (HPC), higher T/C = longer survival): 100 % of control; T/C (T/C endpoint: median survival time, dose: 16.0 mg/kg/injection, schedule: Q01DX009 (ip), vehicle: saline with Tween-80, higher T/C = longer survival): 103 % of control; survivor count (T/C endpoint: median survival time, dose: 30.0 mg/kg/injection, schedule: Q01DX009 (ip), vehicle: Klucel (hydroxypropylcellulose) (HPC), higher T/C = longer survival): 10 of 10; T/C (T/C endpoint: median survival time, dose: 32.0 mg/kg/injection, schedule: Q01DX009 (ip), vehicle: saline with Tween-80, higher T/C = longer survival): 103 % of control; survivor count (T/C endpoint: median survival time, dose: 60.0 mg/kg/injection, schedule: Q01DX009 (ip), vehicle: Klucel (hydroxypropylcellulose) (HPC), higher T/C = longer survival): 10 of 10; T/C (T/C endpoint: median survival time, dose: 64.0 mg/kg/injection, schedule: Q01DX009 (ip), vehicle: saline with Tween-80, higher T/C = longer survival): 128 % of control; T/C (T/C endpoint: median survival time, dose: 128.0 mg/kg/injection, schedule: Q01DX009 (ip), vehicle: saline with Tween-80, higher T/C = longer survival): 87 % of control

**Q.** What does the source list for `O=NN1CCN/C1=N\[N+](=O)[O-]`?
**A.** T/C (T/C endpoint: median survival time, dose: 50.0 mg/kg/injection, schedule: Q02DX009 (ip), vehicle: saline with Tween-80, higher T/C = longer survival): 125 % of control; T/C (T/C endpoint: median survival time, dose: 100.0 mg/kg/injection, schedule: Q02DX009 (ip), vehicle: saline with Tween-80, higher T/C = longer survival): 114 % of control; T/C (T/C endpoint: median survival time, dose: 200.0 mg/kg/injection, schedule: Q02DX009 (ip), vehicle: saline with Tween-80, higher T/C = longer survival): 104 % of control [9 of 10 alive]; survivor count (T/C endpoint: median survival time, dose: 400.0 mg/kg/injection, schedule: Q02DX009 (ip), vehicle: saline with Tween-80, higher T/C = longer survival): 7 of 10

**Q.** With `NC1CCCCC1.O=P(O)(N(CCCl)CCCl)N1CC1` as the compound, how does the T/C (T/C endpoint: median survival time, dose: 6.25 mg/kg/injection, schedule: Q08DX002 (ip), vehicle: saline, higher T/C = longer survival) read?
**A.** 114 % of control

**Q.** And the T/C (T/C endpoint: median survival time, dose: 12.5 mg/kg/injection, schedule: Q04DX003 (ip), vehicle: saline, higher T/C = longer survival)?
**A.** 114 % of control

**Q.** And the T/C (T/C endpoint: median survival time, dose: 12.5 mg/kg/injection, schedule: Q08DX002 (ip), vehicle: saline, higher T/C = longer survival)?
**A.** 115 % of control

**Q.** What about the T/C (T/C endpoint: median survival time, dose: 25.0 mg/kg/injection, schedule: Q04DX003 (ip), vehicle: saline, higher T/C = longer survival) of the same compound?
**A.** 112 % of control

**Q.** What about the T/C (T/C endpoint: median survival time, dose: 25.0 mg/kg/injection, schedule: Q08DX002 (ip), vehicle: saline, higher T/C = longer survival) of the same compound?
**A.** 100 % of control

**Q.** What about the T/C (T/C endpoint: median survival time, dose: 50.0 mg/kg/injection, schedule: Q04DX003 (ip), vehicle: saline, higher T/C = longer survival) of the same compound?
**A.** 112 % of control

**Q.** What about the T/C (T/C endpoint: median survival time, dose: 50.0 mg/kg/injection, schedule: Q08DX002 (ip), vehicle: saline, higher T/C = longer survival) of the same compound?
**A.** 107 % of control

**Q.** And the T/C (T/C endpoint: median survival time, dose: 100.0 mg/kg/injection, schedule: Q04DX003 (ip), vehicle: saline, higher T/C = longer survival)?
**A.** 96 % of control
